Values of other authors in patent US20100280494A1, “CATHETER AND ARRAY FOR ANTICANCER THERAPY” (priority 2006, published 2010).
At least one structure is not confirmed: it was looked up by name or label, or the drawing left a doubt.

Test system: newly diagnosed GBM
Settings: oral, during and after the course of radiation; beyond surgery and radiation alone

Structure (SMILES): Cn1nnc2c(C(N)=O)ncn2c1=O [temozolomide]
- median prolongation of survival: 2-3 months
